Assay results from patent US12729225B2, “Non-canonical SWI/SNF complex and uses thereof” (Dana-Farber Cancer Institute, Inc., priority 2018, dated 2026).

System: mSWI/SNF complexes
Experiment: mSWI/SNF complex purification with HA-tagged baits and mass spectrometry (peptide counts)
Set-up: species or system human
[1] = 293_HA-BRD7: HA-BRD7 bait purification, total peptide count per co-purified protein
[2] = 293_HA-BRD7: HA-BRD7 bait purification, unique peptide count per co-purified protein
[3] = total peptide count of the co-purified protein, 293_HA-BRD9 (HA-BRD9 bait, mass spectrometry), Table 3b
[4] = unique peptide count of the co-purified protein, 293_HA-BRD9 (HA-BRD9 bait, mass spectrometry), Table 3b

| Molecule | Total [1] | Unique [2] | Total [3] | Unique [4] |
| --- | --- | --- | --- | --- |
| MATR3 (protein, UniProt P43243 2-847, looked up) Matrin-3: SKSFQQSSLSRDSQGHGRDLSAAGIGLLAAATQSLSMPASLGRMNQGTARLASLMNLGMSSSLNQQGAHSALSSASTSSHNLQSIFNIGSRGPLPLSSQHRGDADQASNILASFGLSARDLDELSRYPEDKITPENLPQILLQLKRRRTEEGPTLSYGRDGRSATREPPYRVPRDDWEEKRHFRRDSFDDRGPSLNPVLDYDHGSRSQESGYYDRMDYEDDRLRDGERCRDDSFFGETSHNYHKFDSEYERMGRGPGPLQERSLFEKKRGAPPSSNIEDFHGLLPKGYPHLCSICDLPVHSNKEWSQHINGASHSRRCQLLLEIYPEWNPDNDTGHTMGDPFMLQQSTNPAPGILGPPPPSFHLGGPAVGPRGNLGAGNGNLQGPRHMQKGRVETSRVVHIMDFQRGKNLRYQLLQLVEPFGVISNHLILNKINEAFIEMATTEDAQAAVDYYTTTPALVFGKPVRVHLSQKYKRIKKPEGKPDQKFDQKQELGRVIHLSNLPHSGYSDSAVLKLAEPYGKIKNYILMRMKSQAFIEMETREDAMAMVDHCLKKALWFQGRCVKVDLSEKYKKLVLRIPNRGIDLLKKDKSRKRSYSPDGKESPSDKKSKTDGSQKTESSTEGKEQEEKSGEDGEKDTKDDQTEQEPNMLLESEDELLVDEEEAAALLESGSSVGDETDLANLGDVASDGKKEPSDKAVKKDGSASAAAKKKLKKVDKIEELDQENEAALENGIKNEENTEPGAESSENADDPNKDTSENADGQSDENKDDYTIPDEYRIGPYQPNVPVGIDYVIPKTGFYCKLCSLFYTNEEVAKNTHCSSLPHYQKLKKFLNKLAEERRQKKET | 14 | 13 | 3 | 3 |
| DDX28 (protein, UniProt Q9NUL7 1-540, looked up) Probable ATP-dependent RNA …: MALTRPVRLFSLVTRLLLAPRRGLTVRSPDEPLPVVRIPVALQRQLEQRQSRRRNLPRPVLVRPGPLLVSARRPELNQPARLTLGRWERAPLASQGWKSRRARRDHFSIERAQQEAPAVRKLSSKGSFADLGLEPRVLHALQEAAPEVVQPTTVQSSTIPSLLRGRHVVCAAETGSGKTLSYLLPLLQRLLGQPSLDSLPIPAPRGLVLVPSRELAQQVRAVAQPLGRSLGLLVRDLEGGHGMRRIRLQLSRQPSADVLVATPGALWKALKSRLISLEQLSFLVLDEADTLLDESFLELVDYILEKSHIAEGPADLEDPFNPKAQLVLVGATFPEGVGQLLNKVASPDAVTTITSSKLHCIMPHVKQTFLRLKGADKVAELVHILKHRDRAERTGPSGTVLVFCNSSSTVNWLGYILDDHKIQHLRLQGQMPALMRVGIFQSFQKSSRDILLCTDIASRGLDSTGVELVVNYDFPPTLQDYIHRAGRVGRVGSEVPGTVISFVTHPWDVSLVQKIELAARRRRSLPGLASSVKEPLPQAT | 9 | 9 | 3 | 2 |
| SLC25A13 (protein, UniProt Q9UJS0 2-675, looked up) Electrogenic …: AAAKVALTKRADPAELRTIFLKYASIEKNGEFFMSPNDFVTRYLNIFGESQPNPKTVELLSGVVDQTKDGLISFQEFVAFESVLCAPDALFMVAFQLFDKAGKGEVTFEDVKQVFGQTTIHQHIPFNWDSEFVQLHFGKERKRHLTYAEFTQFLLEIQLEHAKQAFVQRDNARTGRVTAIDFRDIMVTIRPHVLTPFVEECLVAAAGGTTSHQVSFSYFNGFNSLLNNMELIRKIYSTLAGTRKDVEVTKEEFVLAAQKFGQVTPMEVDILFQLADLYEPRGRMTLADIERIAPLEEGTLPFNLAEAQRQKASGDSARPVLLQVAESAYRFGLGSVAGAVGATAVYPIDLVKTRMQNQRSTGSFVGELMYKNSFDCFKKVLRYEGFFGLYRGLLPQLLGVAPEKAIKLTVNDFVRDKFMHKDGSVPLAAEILAGGCAGGSQVIFTNPLEIVKIRLQVAGEITTGPRVSALSVVRDLGFFGIYKGAKACFLRDIPFSAIYFPCYAHVKASFANEDGQVSPGSLLLAGAIAGMPAASLVTPADVIKTRLQVAARAGQTTYSGVIDCFRKILREEGPKALWKGAGARVFRSSPQFGVTLLTYELLQRWFYIDFGGVKPMGSEPVPKSRINLPAPNPDHVGGYKLAVATFAGIENKFGLYLPLFKPSVSTSKAIGGGP | 14 | 14 | 2 | 2 |
| RBM15 (protein, UniProt Q96T37 1-977, looked up) RNA-binding protein 15: MRTAGRDPVPRRSPRWRRAVPLCETSAGRRVTQLRGDDLRRPATMKGKERSPVKAKRSRGGEDSTSRGERSKKLGGSGGSNGSSSGKTDSGGGSRRSLHLDKSSSRGGSREYDTGGGSSSSRLHSYSSPSTKNSSGGGESRSSSRGGGGESRSSGAASSAPGGGDGAEYKTLKISELGSQLSDEAVEDGLFHEFKRFGDVSVKISHLSGSGSGDERVAFVNFRRPEDARAAKHARGRLVLYDRPLKIEAVYVSRRRSRSPLDKDTYPPSASVVGASVGGHRHPPGGGGGQRSLSPGGAALGYRDYRLQQLALGRLPPPPPPPLPRDLERERDYPFYERVRPAYSLEPRVGAGAGAAPFREVDEISPEDDQRANRTLFLGNLDITVTESDLRRAFDRFGVITEVDIKRPSRGQTSTYGFLKFENLDMSHRAKLAMSGKIIIRNPIKIGYGKATPTTRLWVGGLGPWVPLAALAREFDRFGTIRTIDYRKGDSWAYIQYESLDAAHAAWTHMRGFPLGGPDRRLRVDFADTEHRYQQQYLQPLPLTHYELVTDAFGHRAPDPLRGARDRTPPLLYRDRDRDLYPDSDWVPPPPPVRERSTRTAATSVPAYEPLDSLDRRRDGWSLDRDRGDRDLPSSRDQPRKRRLPEESGGRHLDRSPESDRPRKRHCAPSPDRSPELSSSRDRYNSDNDRSSRLLLERPSPIRDRRGSLEKSQGDKRDRKNSASAERDRKHRTTAPTEGKSPLKKEDRSDGSAPSTSTASSKLKSPSQKQDGGTAPVASASPKLCLAWQGMLLLKNSNFPSNMHLLQGDLQVASSLLVEGSTGGKVAQLKITQRLRLDQPKLDEVTRRIKVAGPNGYAILLAVPGSSDSRSSSSSAASDTATSTQRPLRNLVSYLKQKQAAGVISLPVGGNKDKENTGVLHAFPPCEFSQQFLDSPAKALAKSEEDYLVMIIVRGFGFQIGVRYENKKRENLALTLL | 9 | 9 | 2 | 2 |
| CDSN (protein, UniProt Q15517 33-529, looked up) Corneodesmosin: KSIGTFSDPCKDPTRITSPNDPCLTGKGDSSGFSSYSGSSSSGSSISSARSSGGGSSGSSSGSSIAQGGSAGSFKPGTGYSQVSYSSGSGSSLQGASGSSQLGSSSSHSGNSGSHSGSSSSHSSSSSSFQFSSSSFQVGNGSALPTNDNSYRGILNPSQPGQSSSSSQTFGVSSSGQSVSSNQRPCSSDIPDSPCSGGPIVSHSGPYIPSSHSVSGGQRPVVVVVDQHGSGAPGVVQGPPCSNGGLPGKPCPPITSVDKSYGGYEVVGGSSDSYLVPGMTYSKGKIYPVGYFTKENPVKGSPGVPSFAAGPPISEGKYFSSNPIIPSQSAASSAIAFQPVGTGGVQLCGGGSTGSKGPCSPSSSRVPSSSSISSSSGLPYHPCGSASQSPCSPPGTGSFSSSSSSQSSGKIILQPCGSKSSSSGHPCMSVSSLTLTGGPDGSPHPDPSAGAKPCGSSSAGKIPCRSIRDILAQVKPLGPQLADPEVFLPQGELLNSP | – | – | 2 | 2 |
| CEBPZ (protein, UniProt Q03701 1-1054, looked up) CCAAT/enhancer-binding …: MAAVKEPLEFHAKRPWRPEEAVEDPDEEDEDNTSEAENGFSLEEVLRLGGTKQDYLMLATLDENEEVIDGGKKGAIDDLQQGELEAFIQNLNLAKYTKASLVEEDEPAEKENSSKKEVKIPKINNKNTAESQRTSVNKVKNKNRPEPHSDENGSTTPKVKKDKQNIFEFFERQTLLLRPGGKWYDLEYSNEYSLKPQPQDVVSKYKTLAQKLYQHEINLFKSKTNSQKGASSTWMKAIVSSGTLGDRMAAMILLIQDDAVHTLQFVETLVNLVKKKGSKQQCLMALDTFKELLITDLLPDNRKLRIFSQRPFDKLEQLSSGNKDSRDRRLILWYFEHQLKHLVAEFVQVLETLSHDTLVTTKTRALTVAHELLCNKPEEEKALLVQVVNKLGDPQNRIATKASHLLETLLCKHPNMKGVVSGEVERLLFRSNISSKAQYYAICFLNQMALSHEESELANKLITVYFCFFRTCVKKKDVESKMLSALLTGVNRAYPYSQTGDDKVREQIDTLFKVLHIVNFNTSVQALMLLFQVMNSQQTISDRYYTALYRKMLDPGLMTCSKQAMFLNLVYKSLKADIVLRRVKAFVKRLLQVTCQQMPPFICGALYLVSEILKAKPGLRSQLDDHPESDDEENFIDANDDEDMEKFTDADKETEIVKKLETEETVPETDVETKKPEVASWVHFDNLKGGKQLNKYDPFSRNPLFCGAENTSLWELKKLSVHFHPSVALFAKTILQGNYIQYSGDPLQDFTLMRFLDRFVYRNPKPHKGKENTDSVVMQPKRKHFIKDIRHLPVNSKEFLAKEESQIPVDEVFFHRYYKKVAVKEKQKRDADEESIEDVDDEEFEELIDTFEDDNCFSSGKDDMDFAGNVKKRTKGAKDNTLDEDSEGSDDELGNLDDDEVSLGSMDDEEFAEVDEDGGTFMDVLDDESESVPELEVHSKVSTKKSKRKGTDDFDFAGSFQGPRKKKRNLNDSSLFVSAEEFGHLLDENMGSKFDNIGMNAMANKDNASLKQLRWEAERDDWLHNRDAKSIIKKKKHFKKKRIKTTQKTKKQRK | 7 | 6 | 2 | 2 |
